These are yes or no findings as the source states them, for the method shown.
Molecular target: Cin8 motor domain (purified Cin8 protein used for size-exclusion chromatography; construct not named) (S. cerevisiae) (UniProt P27895)
Assay: SEC; Superose 6 Increase 10/300, 293 K, 20 mM HEPES pH 7.2, 150 mM potassium chloride, 0.5 ml/min; compared with monomeric Eg5; both purified

binding: no binding
B1: Cin8 motor domain (purified Cin8 protein used for size-exclusion chromatography; construct not named) (domain or fragment, UniProt P27895 70-535)
chain: ISINTTGDTGITAQMNAKRYTVDKVFGPGASQDLIFDEVAGPLFQDFIKGYNCTVLVYGMTSTGKTYTMTGDEKLYNGELSDAAGIIPRVLLKLFDTLELQQNDYVVKCSFIELYNEELKDLLDSNSNGSSNTGFDGQFMKKLRIFDSSTANNTTSNSASSSRSNSRNSSPRSLNDLTPKAALLRKRLRTKSLPNTIKQQYQQQQAVNSRNNSSSNSGSTTNNASSNTNTNNGQRSSMAPNDQTNGIYIQNLQEFHITNAMEGLNLLQKGLKHRQVASTKMNDFSSRSHTIFTITLYKKHQDELFRISKMNLVDLAGSENINRSGALNQRAKEAGSINQSLLTLGRVINALVDKSGHIPFRESKLTRLLQDSLGGNTKTALIATISPAKVTSEETCSTLEYASKAKNIKNKPQLGSFIMKDILVKNITMELAKIKSDLLSTKSKEGIYMSQDHYKNLNSDLESYKN

— publication PMC5582858, “The yeast kinesin-5 Cin8 interacts with the microtubule in a noncanonical manner” (The Journal of Biological Chemistry, 2017)
